Laboratory results: PubChem BioAssay AID330 (DTP/NCI, 2004)
The list is a part of this screen's results and no random one: its compounds were picked by chemical class. Not every dose and run of a compound is shown. T/C: endpoint of the treated group in % of that of the vehicle group. Some entries give survivors of the animals treated and no T/C: the source holds a T/C of zero for them, seemingly a mark for toxic or unscored doses. Some survivor counts are full or nearly so, which does not show that the dose was tolerated: the source hardly ever lists a survival T/C far under the control, and the zero likely stands for such cases as well. Counts of survivors are from the toxicity check (mostly the fifth day) where no day follows; animals may have died later. Schedule codes are those of the source, read here as Q, the interval in days (D) or hours (H), X, the number of doses. For survival time, the PubChem record calls one and a half times the control and up active, and a quarter to a half above the control has no call in these data; cut-offs in other NCI protocols can differ. Some T/C values are followed by the survivors on the day toxicity was checked, most often the fifth; without a count or a note in brackets, all were alive then. Some entries hold several experiments; the results are listed from low to high. Some T/C values are marked as having no survivor count here; that says nothing about deaths at the dose. Some metal complexes and salts are drawn in pieces, as in the source, so charges may not balance.

Tested on: P388 leukemia ip, CD2F1 mice, survival T/C
Experiment: NCI In Vivo Anticancer Drug Screen. Data for tumor model P388 Leukemia (intraperitoneal) in CD2F1 (CDF1) mice
Conditions: T/C endpoint: median survival time, higher T/C = longer survival
[1] = dose: 100.0 mg/kg/injection, schedule: Q01DX001 (ip), vehicle: Klucel (hydroxypropylcellulose) (HPC)
[2] = dose: 200.0 mg/kg/injection, schedule: Q01DX001 (ip), vehicle: Klucel (hydroxypropylcellulose) (HPC)
[3] = dose: 400.0 mg/kg/injection, schedule: Q01DX001 (ip), vehicle: Klucel (hydroxypropylcellulose) (HPC)
[4] = dose: 100.0 mg/kg/injection, schedule: Q01DX009 (ip), vehicle: saline with Tween-80
[5] = dose: 200.0 mg/kg/injection, schedule: Q01DX009 (ip), vehicle: saline with Tween-80
[6] = dose: 50.0 mg/kg/injection, schedule: Q01DX009 (ip), vehicle: saline with Tween-80
[7] = dose: 50.0 mg/kg/injection, schedule: Q01DX009 (ip), vehicle: Klucel (hydroxypropylcellulose) (HPC)
[8] = dose: 100.0 mg/kg/injection, schedule: Q01DX009 (ip), vehicle: Klucel (hydroxypropylcellulose) (HPC)
[9] = dose: 200.0 mg/kg/injection, schedule: Q01DX009 (ip), vehicle: Klucel (hydroxypropylcellulose) (HPC)
[10] = dose: 10.0 mg/kg/injection, schedule: Q01DX009 (ip), vehicle: saline with Tween-80
[11] = dose: 20.0 mg/kg/injection, schedule: Q01DX009 (ip), vehicle: saline with Tween-80
[12] = dose: 40.0 mg/kg/injection, schedule: Q01DX009 (ip), vehicle: saline with Tween-80
[13] = dose: 100.0 mg/kg/injection, schedule: Q01DX009 (ip), vehicle: saline
[14] = dose: 200.0 mg/kg/injection, schedule: Q01DX009 (ip), vehicle: saline
[15] = dose: 400.0 mg/kg/injection, schedule: Q01DX009 (ip), vehicle: saline
[16] = dose: 60.0 mg/kg/injection, schedule: Q01DX005 (ip), vehicle: saline
[17] = dose: 120.0 mg/kg/injection, schedule: Q01DX005 (ip), vehicle: saline
[18] = dose: 240.0 mg/kg/injection, schedule: Q01DX005 (ip), vehicle: saline
[19] = dose: 50.0 mg/kg/injection, schedule: Q01DX009 (ip), vehicle: saline

## O=[N+]([O-])C1(Br)CCC(Br)([N+](=O)[O-])CC1 (stereo not drawn)
dose: 50.0 mg/kg/injection, schedule: Q01DX001 (ip), vehicle: Klucel (hydroxypropylcellulose) (HPC)
  T/C: 109 % of control
[1]
  T/C: 104 and 108 % of control
[2]
  T/C: 100 and 108 % of control
[3]
  T/C: 107 % of control

## CC1(C)CN1P(=O)(Nc1ccccn1)N1CC1(C)C (stereo not drawn)
dose: 6.5 mg/kg/injection, schedule: Q01DX009 (ip), vehicle: saline with Tween-80
  T/C: 100 % of control
dose: 13.0 mg/kg/injection, schedule: Q01DX009 (ip), vehicle: saline with Tween-80
  T/C: 103 % of control
dose: 26.0 mg/kg/injection, schedule: Q01DX009 (ip), vehicle: saline with Tween-80
  T/C: 103 % of control
dose: 44.0 mg/kg/injection, schedule: Q01DX009 (ip), vehicle: saline with Tween-80
  T/C: 118 % of control
dose: 66.0 mg/kg/injection, schedule: Q01DX009 (ip), vehicle: saline with Tween-80
  T/C: 127 % of control
dose: 88.0 mg/kg/injection, schedule: Q01DX009 (ip), vehicle: saline with Tween-80
  T/C: 145 % of control
[4]
  T/C: 145 % of control [5 of 6 alive]
dose: 132.0 mg/kg/injection, schedule: Q01DX009 (ip), vehicle: saline with Tween-80
  T/C: 153 % of control
dose: 150.0 mg/kg/injection, schedule: Q01DX009 (ip), vehicle: saline with Tween-80
  T/C: 145 % of control [5 of 6 alive]
[5]
  T/C: 205 % of control
dose: 300.0 mg/kg/injection, schedule: Q01DX009 (ip), vehicle: saline with Tween-80
  survivor count: 3 of 6

## O=C(SC(c1ccccc1)C(Cl)Cl)c1ccccc1 (stereo not drawn)
[6]
  T/C: 93 % of control
[4]
  T/C: 89 % of control
[5]
  T/C: 98 % of control

## O=[N+]([O-])c1ccc(Sc2ccc([N+](=O)[O-])cc2[N+](=O)[O-])c([N+](=O)[O-])c1
[6]
  T/C: 104 % of control [survivor count not shown]
[4]
  T/C: 113 % of control [survivor count not shown]
[5]
  T/C: 121 % of control [survivor count not shown]

## O=c1[nH]nn[nH]1
dose: 50.0 mg/kg/injection, schedule: Q01DX005 (ip), vehicle: Klucel (hydroxypropylcellulose) (HPC)
  T/C: 107 % of control
dose: 100.0 mg/kg/injection, schedule: Q01DX005 (ip), vehicle: Klucel (hydroxypropylcellulose) (HPC)
  T/C: 107 % of control
dose: 200.0 mg/kg/injection, schedule: Q01DX005 (ip), vehicle: Klucel (hydroxypropylcellulose) (HPC)
  T/C: 94 % of control

## O=[N+]([O-])c1cccc(Oc2ccc([N+](=O)[O-])cc2[N+](=O)[O-])c1
[7]
  T/C: 106 % of control
[8]
  T/C: 113 % of control
[9]
  T/C: 116 % of control

## S=P1(Cl)Oc2ccccc2-c2ccccc2O1
dose: 50.0 mg/kg/injection, schedule: Q04DX003 (ip), vehicle: saline with Tween-80
  T/C: 95 % of control
dose: 100.0 mg/kg/injection, schedule: Q04DX003 (ip), vehicle: saline with Tween-80
  T/C: 100 % of control
dose: 200.0 mg/kg/injection, schedule: Q04DX003 (ip), vehicle: saline with Tween-80
  T/C: 100 % of control

## CN(CCCl)CCCCCCCl
dose: 1.25 mg/kg/injection, schedule: Q01DX009 (ip), vehicle: saline with Tween-80
  T/C: 100 % of control
dose: 2.5 mg/kg/injection, schedule: Q01DX009 (ip), vehicle: saline with Tween-80
  T/C: 97 % of control
dose: 5.0 mg/kg/injection, schedule: Q01DX009 (ip), vehicle: saline with Tween-80
  T/C: 110 % of control
[10]
  T/C: 124 % of control
[11]
  T/C: 138 % of control
[12]
  T/C: 133 % of control

## C1CN1.O=C(O)CCSCNc1ncnc2c1ncn2C1OC(CO)C(O)C1O (stereo not drawn)
dose: 5.0 mg/kg/injection, schedule: Q04DX002 (ip), vehicle: saline
  T/C: 113 % of control
dose: 10.0 mg/kg/injection, schedule: Q04DX002 (ip), vehicle: saline
  T/C: 118 % of control
dose: 20.0 mg/kg/injection, schedule: Q04DX002 (ip), vehicle: saline
  T/C: 114 % of control
dose: 100.0 mg/kg/injection, schedule: Q04DX002 (ip), vehicle: saline
  survivor count: 0 of 6
dose: 200.0 mg/kg/injection, schedule: Q04DX002 (ip), vehicle: saline
  survivor count: 0 of 6
dose: 400.0 mg/kg/injection, schedule: Q04DX002 (ip), vehicle: saline
  survivor count: 0 of 6

## COc1ccc(CN2CCCN(Cc3ccc(OC)cc3)P2(=O)Cl)cc1
dose: 25.0 mg/kg/injection, schedule: Q01DX001 (ip), vehicle: saline
  T/C: 97 % of control
dose: 50.0 mg/kg/injection, schedule: Q01DX001 (ip), vehicle: saline
  T/C: 100 % of control
dose: 100.0 mg/kg/injection, schedule: Q01DX001 (ip), vehicle: saline
  T/C: 103 % of control
dose: 200.0 mg/kg/injection, schedule: Q01DX001 (ip), vehicle: saline
  T/C: 95 % of control

## BrCCN(CCBr)c1ccc(-c2ccccc2)cc1
[1]
  T/C: 124 % of control
[2]
  T/C: 154 % of control
[3]
  T/C: 165 % of control

## O=[N+]([O-])c1cc([N+](=O)[O-])c(-c2cc(-c3c([N+](=O)[O-])cc([N+](=O)[O-])cc3[N+](=O)[O-])nc(-c3c([N+](=O)[O-])cc([N+](=O)[O-])cc3[N+](=O)[O-])n2)c([N+](=O)[O-])c1
[6]
  T/C: 100 % of control
[4]
  T/C: 97 % of control
[5]
  T/C: 106 % of control [5 of 6 alive]

## NNc1nc(NN)nc(NN)n1
dose: 25.0 mg/kg/injection, schedule: Q04DX003 (ip), vehicle: Klucel (hydroxypropylcellulose) (HPC)
  T/C: 95 and 101 % of control
dose: 50.0 mg/kg/injection, schedule: Q04DX003 (ip), vehicle: Klucel (hydroxypropylcellulose) (HPC)
  T/C: 93 and 129 % of control
dose: 100.0 mg/kg/injection, schedule: Q04DX003 (ip), vehicle: Klucel (hydroxypropylcellulose) (HPC)
  T/C: 93 and 101 % of control

## ClCCN1OC12CCCCC2 (stereo not drawn)
[13]
  T/C: 123 and 134 % of control
[14]
  T/C: 133 and 148 % of control
[15]
  T/C: 114 % of control [4 of 6 alive]
  survivor count: 4 of 6

## C(Cc1nn[nH]n1)c1nn[nH]n1
[7]
  T/C: 115 % of control
[8]
  T/C: 98 % of control
[9]
  T/C: 112 % of control

## O=C1OCCN1P(=O)(Cl)N1CCOC1=O
[16]
  T/C: 95 % of control
[17]
  T/C: 90 % of control
[18]
  survivor count: 5 of 6

## CC(C)OP(C)(=O)OC(C)C.CC(C)OP(C)(=O)OC(C)C.CC(C)OP(C)(=O)OC(C)C.CC(C)OP(C)(=O)OC(C)C.[Co+2].[O-][Cl+3]([O-])([O-])O
[19]
  T/C: 98 % of control [survivor count not shown]
[13]
  T/C: 114 % of control [survivor count not shown]

## COP(C)(=O)OC.COP(C)(=O)OC.COP(C)(=O)OC.COP(C)(=O)OC.COP(C)(=O)OC.COP(C)(=O)OC.[Al+3].[O-][Cl+3]([O-])([O-])O
[19]
  T/C: 97 % of control [survivor count not shown]
[13]
  T/C: 88 % of control [survivor count not shown]

## CCOC(=O)NC(C)(CC(C)(NC(=O)OCC)P(=O)(O)Nc1ncn[nH]1)P(=O)(O)Nc1ncn[nH]1 (stereo not drawn)
[16]
  T/C: 103 % of control
[17]
  T/C: 103 % of control
[18]
  T/C: 94 % of control

## CCN(CC)Cc1ccc(N(CCCl)CCCl)cc1
dose: 33.0 mg/kg/injection, schedule: Q01DX009 (ip), vehicle: saline
  T/C: 141 % of control
[19]
  T/C: 150 and 159 % of control [5 of 6 alive]
dose: 75.0 mg/kg/injection, schedule: Q01DX009 (ip), vehicle: saline
  T/C: 128 % of control [5 of 6 alive]
[13]
  survivor count: 1 of 6
[14]
  survivor count: 0 of 6

## CC(C)([N+](=O)[O-])C(C)(C)[N+](=O)[O-]
[10]
  T/C: 100 % of control
[11]
  survivor count: 4 of 6
[12]
  survivor count: 0 of 6

## O=C(CBr)CBr
[6]
  survivor count: 0 of 6
[4]
  survivor count: 0 of 6
[5]
  survivor count: 0 of 6
